{"sequences": {"note": "The chains behind the UniProt entries cited, without tags or fusion partners. Where a name states a change or a piece, a line headed by the entry shows the natural chain unless it says otherwise.", "UniProt Q96EP0": "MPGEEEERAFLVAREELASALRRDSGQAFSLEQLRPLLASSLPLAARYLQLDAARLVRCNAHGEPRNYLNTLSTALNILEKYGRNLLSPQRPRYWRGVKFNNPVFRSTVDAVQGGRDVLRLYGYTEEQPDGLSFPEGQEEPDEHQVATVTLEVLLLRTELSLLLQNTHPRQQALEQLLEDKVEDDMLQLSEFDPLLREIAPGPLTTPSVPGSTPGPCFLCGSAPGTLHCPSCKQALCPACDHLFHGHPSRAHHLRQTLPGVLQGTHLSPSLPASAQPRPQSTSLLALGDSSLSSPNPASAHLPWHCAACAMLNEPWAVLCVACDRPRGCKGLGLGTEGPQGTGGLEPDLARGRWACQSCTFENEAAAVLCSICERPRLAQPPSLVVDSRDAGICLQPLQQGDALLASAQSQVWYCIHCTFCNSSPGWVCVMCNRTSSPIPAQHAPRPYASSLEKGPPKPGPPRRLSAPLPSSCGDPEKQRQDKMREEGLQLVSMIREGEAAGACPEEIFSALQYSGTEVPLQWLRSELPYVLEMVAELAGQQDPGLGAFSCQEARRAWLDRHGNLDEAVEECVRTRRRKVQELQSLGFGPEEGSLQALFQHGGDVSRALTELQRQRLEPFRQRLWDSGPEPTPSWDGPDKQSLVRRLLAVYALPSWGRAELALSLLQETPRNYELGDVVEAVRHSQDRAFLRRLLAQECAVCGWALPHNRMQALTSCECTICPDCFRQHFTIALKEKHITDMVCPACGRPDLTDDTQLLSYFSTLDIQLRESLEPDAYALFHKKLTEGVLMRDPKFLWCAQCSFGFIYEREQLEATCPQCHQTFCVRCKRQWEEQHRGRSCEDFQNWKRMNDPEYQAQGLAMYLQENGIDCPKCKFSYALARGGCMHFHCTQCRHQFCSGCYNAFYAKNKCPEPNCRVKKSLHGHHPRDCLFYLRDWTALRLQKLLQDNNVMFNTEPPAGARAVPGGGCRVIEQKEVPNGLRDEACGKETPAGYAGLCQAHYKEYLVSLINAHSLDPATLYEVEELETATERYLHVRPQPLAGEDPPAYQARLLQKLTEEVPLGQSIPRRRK"}, "source": "paper PMC5009064", "key": {"[1]": {"molecular_target": "TAP-tagged wild-type HOIP (UniProt Q96EP0)", "assay": "co-IP; HOIP-TAP complexes purified from reconstituted HOIP-deficient K562 cells, western blot"}, "FLAG-HOIP-WT": {"molecular_target": "FLAG-HOIP-WT (UniProt Q96EP0)", "assay": "co-IP; HOIP-deficient K562 cells reconstituted with FLAG-HOIP-WT or truncated FLAG-HOIP; IP of HOIP, western blot"}, "HOIP-N102A": {"molecular_target": "HOIP-N102A (UniProt Q96EP0)", "assay": "co-IP; same experiment as a7 (TNFR1-SC purified by FLAG-TNF from HOIP-deficient A549 cells reconstituted with HOIP-N102A), read for SPATA2 and HOIP-N102A, both in cells"}}, "note": "No constants are given. Whether binding was seen depends on the method and setting. Binding seen in cells or lysates may run through a third protein. Some results given as binding are weak or reduced against the parent protein; the word gives no strength."}
{"binder": "SPATA2 (protein, UniProt Q9UM82 1-520) MGKPSSMDTKFKDDLFRKYVQFHESKVDTTTSRQRPGSDECLRVAASTLLSLHKVDPFYRFRLIQFYEVVESSLRSLSSSSLRALHGAFSMLETVGINLFLYPWKKEFRSIKTYTGPFVYYVKSTLLEEDIRAILSCMGYTPELGTAYKLRELVETLQVKMVSFELFLAKVECEQMLEIHSQVKDKGYSELDIVSERKSSAEDVRGCSDALRRRAEGREHLTASMSRVALQKSASERAAKDYYKPRVTKPSRSVDAYDSYWESRKPPLKASLSLRKEPVATDVGDDLKDEIIRPSPSLLTMASSPHGSPDVLPPASPSNGPALLRGTYFSTQDDVDLYTDSEPRATYRRQDALRPDVWLLRNDAHSLYHKRSPPAKESALSKCQSCGLSCSSSLCQRCDSLLTCPPASKPSAFPSKASTHDSLAHGASLREKYPGQTQGLDRLPHLHSKSKPSTTPTSRCGFCNRPGATNTCTQCSKVSCDACLSAYHYDPCYKKSELHKFMPNNQLNYKSTQLSHLVYR", "values": [{"measurement": "binding", "setting": "[1]", "result": "binds"}, {"measurement": "binding", "setting": "FLAG-HOIP-WT", "result": "binds"}, {"measurement": "binding", "setting": "HOIP-N102A", "result": "no binding"}]}
